# Experimental data from the supplement of paper PMC10849652.
# Sequences of proteins named here, by UniProt entry; tags and fusion partners are left off. A change or cut given only in a name is not applied to a line headed by its entry.
# UniProt Q13105: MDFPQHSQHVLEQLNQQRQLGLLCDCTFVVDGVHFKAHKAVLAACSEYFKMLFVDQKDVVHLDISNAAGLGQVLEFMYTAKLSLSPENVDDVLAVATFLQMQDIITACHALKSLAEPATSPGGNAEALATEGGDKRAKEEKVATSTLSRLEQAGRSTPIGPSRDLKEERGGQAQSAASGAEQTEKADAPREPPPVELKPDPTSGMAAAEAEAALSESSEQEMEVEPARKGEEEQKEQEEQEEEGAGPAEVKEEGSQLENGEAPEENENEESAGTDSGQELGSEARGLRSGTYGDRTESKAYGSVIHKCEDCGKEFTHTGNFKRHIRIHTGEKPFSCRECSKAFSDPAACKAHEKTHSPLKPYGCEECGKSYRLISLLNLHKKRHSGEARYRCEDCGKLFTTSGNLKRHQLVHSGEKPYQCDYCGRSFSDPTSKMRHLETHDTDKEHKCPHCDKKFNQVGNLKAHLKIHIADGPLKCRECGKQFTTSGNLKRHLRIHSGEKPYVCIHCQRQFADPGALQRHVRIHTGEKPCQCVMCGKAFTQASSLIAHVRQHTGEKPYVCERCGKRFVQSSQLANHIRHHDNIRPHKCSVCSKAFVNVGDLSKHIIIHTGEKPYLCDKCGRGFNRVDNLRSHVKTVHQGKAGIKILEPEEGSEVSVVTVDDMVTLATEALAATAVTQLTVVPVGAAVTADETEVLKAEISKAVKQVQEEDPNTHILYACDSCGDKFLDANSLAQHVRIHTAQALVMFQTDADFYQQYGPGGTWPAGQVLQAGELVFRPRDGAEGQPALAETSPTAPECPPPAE
# UniProt Q01831: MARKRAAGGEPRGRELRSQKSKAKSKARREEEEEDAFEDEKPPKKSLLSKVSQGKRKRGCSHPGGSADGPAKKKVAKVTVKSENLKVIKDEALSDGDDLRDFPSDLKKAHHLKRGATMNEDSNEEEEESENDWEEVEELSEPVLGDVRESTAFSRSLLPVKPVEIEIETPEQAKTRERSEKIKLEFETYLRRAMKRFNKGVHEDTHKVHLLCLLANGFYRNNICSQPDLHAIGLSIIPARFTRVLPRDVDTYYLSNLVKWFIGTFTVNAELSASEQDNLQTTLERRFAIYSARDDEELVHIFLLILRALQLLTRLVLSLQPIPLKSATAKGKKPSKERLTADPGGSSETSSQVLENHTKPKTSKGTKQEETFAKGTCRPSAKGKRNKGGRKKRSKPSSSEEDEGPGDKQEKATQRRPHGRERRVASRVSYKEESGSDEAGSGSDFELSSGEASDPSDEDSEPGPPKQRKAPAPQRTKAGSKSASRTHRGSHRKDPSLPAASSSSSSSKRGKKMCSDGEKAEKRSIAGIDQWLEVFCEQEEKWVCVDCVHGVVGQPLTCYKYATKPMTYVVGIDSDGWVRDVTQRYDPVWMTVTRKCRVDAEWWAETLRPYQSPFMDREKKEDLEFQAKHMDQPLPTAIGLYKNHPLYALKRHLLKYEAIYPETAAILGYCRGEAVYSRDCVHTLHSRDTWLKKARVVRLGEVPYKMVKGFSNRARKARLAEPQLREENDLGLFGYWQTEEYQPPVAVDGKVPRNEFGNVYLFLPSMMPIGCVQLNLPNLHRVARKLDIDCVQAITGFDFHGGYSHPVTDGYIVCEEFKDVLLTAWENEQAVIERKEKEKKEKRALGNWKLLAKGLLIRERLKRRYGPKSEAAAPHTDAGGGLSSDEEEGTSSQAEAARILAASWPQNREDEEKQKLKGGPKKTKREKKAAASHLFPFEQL
# UniProt P23025: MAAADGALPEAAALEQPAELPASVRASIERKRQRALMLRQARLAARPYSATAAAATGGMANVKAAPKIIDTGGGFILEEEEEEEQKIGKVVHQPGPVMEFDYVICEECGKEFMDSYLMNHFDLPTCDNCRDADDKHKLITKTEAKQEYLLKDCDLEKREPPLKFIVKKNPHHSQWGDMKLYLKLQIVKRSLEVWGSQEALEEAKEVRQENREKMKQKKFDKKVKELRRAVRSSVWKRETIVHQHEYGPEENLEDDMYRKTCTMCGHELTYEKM
# UniProt Q9NPG8: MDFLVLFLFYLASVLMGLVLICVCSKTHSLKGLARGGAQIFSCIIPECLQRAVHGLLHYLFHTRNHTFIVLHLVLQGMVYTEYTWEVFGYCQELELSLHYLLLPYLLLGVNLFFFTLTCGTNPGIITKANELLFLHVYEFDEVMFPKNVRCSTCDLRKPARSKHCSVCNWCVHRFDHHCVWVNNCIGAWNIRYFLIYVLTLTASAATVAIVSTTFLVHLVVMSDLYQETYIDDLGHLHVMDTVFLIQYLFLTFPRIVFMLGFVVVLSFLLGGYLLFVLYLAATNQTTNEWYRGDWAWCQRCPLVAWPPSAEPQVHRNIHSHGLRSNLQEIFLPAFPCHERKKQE
# UniProt Q9H1B5: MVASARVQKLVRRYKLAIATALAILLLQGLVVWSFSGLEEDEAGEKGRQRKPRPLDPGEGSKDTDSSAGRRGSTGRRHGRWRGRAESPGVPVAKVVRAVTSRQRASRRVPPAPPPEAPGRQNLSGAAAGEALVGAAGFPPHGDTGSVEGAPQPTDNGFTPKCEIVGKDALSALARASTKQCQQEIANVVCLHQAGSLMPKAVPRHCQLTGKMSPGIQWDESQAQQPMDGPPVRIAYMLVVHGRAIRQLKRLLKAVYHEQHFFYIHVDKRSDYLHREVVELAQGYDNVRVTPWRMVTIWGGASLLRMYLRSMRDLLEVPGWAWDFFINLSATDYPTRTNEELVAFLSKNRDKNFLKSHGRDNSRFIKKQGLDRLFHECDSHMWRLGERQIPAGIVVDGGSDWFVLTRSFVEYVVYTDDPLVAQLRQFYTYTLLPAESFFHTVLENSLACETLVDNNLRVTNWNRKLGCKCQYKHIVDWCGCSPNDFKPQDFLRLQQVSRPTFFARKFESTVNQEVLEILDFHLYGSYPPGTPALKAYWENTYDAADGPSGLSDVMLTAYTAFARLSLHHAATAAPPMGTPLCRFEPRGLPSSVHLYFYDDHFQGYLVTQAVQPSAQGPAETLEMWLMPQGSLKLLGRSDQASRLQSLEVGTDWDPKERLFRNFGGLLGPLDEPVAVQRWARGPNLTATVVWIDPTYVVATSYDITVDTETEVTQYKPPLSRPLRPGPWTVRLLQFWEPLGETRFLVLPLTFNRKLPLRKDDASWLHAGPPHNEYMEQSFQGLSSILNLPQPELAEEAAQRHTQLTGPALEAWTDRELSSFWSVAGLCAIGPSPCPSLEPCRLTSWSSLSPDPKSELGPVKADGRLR
# UniProt Q9Y548: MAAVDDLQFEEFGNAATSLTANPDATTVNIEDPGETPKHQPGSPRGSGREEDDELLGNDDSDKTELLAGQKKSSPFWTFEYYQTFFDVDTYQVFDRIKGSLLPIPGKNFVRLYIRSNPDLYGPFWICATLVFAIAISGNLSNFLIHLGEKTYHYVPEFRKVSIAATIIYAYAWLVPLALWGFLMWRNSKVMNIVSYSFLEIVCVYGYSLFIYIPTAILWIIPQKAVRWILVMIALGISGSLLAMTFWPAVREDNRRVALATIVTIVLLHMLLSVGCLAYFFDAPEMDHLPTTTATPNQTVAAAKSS
# UniProt Q15776: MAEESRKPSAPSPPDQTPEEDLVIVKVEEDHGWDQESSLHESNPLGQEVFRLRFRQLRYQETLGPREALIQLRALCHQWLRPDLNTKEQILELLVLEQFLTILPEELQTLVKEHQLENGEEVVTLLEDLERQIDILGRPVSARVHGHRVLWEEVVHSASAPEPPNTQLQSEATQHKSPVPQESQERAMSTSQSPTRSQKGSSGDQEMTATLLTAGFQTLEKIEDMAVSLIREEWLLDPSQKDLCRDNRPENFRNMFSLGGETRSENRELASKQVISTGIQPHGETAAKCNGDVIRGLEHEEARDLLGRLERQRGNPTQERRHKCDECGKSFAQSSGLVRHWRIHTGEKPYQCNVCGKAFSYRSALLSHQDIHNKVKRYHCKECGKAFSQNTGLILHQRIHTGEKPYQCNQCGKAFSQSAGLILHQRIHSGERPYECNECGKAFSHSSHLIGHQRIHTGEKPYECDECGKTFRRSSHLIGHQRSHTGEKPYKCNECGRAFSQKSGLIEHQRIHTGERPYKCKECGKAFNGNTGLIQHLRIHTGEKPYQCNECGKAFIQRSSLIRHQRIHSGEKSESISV
# UniProt Q96GR4: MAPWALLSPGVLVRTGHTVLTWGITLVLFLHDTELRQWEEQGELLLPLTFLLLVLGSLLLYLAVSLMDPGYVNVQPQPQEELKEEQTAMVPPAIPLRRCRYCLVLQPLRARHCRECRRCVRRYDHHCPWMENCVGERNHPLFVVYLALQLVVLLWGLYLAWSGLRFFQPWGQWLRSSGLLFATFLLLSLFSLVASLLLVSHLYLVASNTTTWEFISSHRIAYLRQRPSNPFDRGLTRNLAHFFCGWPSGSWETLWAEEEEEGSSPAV
# UniProt Q9H6S0: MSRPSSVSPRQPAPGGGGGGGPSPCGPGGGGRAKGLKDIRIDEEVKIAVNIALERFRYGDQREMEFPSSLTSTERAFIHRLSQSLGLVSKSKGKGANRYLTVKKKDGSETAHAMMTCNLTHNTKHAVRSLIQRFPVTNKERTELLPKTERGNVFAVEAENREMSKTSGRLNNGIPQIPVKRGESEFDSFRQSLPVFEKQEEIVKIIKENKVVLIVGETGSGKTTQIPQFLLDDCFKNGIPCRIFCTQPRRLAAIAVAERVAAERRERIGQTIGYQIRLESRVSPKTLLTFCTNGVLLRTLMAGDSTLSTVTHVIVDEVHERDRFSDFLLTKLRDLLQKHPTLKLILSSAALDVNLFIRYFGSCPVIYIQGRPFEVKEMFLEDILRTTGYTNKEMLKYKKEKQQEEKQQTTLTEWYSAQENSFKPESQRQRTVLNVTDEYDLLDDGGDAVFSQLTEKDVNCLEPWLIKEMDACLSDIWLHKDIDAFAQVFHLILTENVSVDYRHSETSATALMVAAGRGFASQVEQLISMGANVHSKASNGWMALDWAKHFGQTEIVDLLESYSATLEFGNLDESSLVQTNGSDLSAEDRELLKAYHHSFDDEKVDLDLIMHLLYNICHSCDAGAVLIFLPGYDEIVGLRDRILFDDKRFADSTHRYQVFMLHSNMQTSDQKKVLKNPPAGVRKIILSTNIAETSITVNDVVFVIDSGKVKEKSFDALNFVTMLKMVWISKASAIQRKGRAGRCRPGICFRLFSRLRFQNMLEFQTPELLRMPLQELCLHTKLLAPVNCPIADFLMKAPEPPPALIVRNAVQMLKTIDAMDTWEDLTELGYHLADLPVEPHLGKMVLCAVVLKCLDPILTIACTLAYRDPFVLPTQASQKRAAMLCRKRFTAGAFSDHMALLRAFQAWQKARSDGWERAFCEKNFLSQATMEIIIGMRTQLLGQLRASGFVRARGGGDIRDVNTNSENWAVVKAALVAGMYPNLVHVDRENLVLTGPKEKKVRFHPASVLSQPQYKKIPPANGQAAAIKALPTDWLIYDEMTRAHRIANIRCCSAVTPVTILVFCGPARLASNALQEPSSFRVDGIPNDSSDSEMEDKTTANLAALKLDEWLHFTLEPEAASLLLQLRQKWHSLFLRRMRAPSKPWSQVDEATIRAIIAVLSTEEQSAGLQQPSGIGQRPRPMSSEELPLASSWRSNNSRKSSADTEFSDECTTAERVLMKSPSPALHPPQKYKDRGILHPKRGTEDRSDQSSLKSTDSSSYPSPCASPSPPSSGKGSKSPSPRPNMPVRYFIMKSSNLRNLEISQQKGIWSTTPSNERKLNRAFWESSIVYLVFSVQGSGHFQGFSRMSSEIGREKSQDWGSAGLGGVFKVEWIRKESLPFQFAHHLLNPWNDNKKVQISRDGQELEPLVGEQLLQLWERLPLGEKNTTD
# UniProt P47974: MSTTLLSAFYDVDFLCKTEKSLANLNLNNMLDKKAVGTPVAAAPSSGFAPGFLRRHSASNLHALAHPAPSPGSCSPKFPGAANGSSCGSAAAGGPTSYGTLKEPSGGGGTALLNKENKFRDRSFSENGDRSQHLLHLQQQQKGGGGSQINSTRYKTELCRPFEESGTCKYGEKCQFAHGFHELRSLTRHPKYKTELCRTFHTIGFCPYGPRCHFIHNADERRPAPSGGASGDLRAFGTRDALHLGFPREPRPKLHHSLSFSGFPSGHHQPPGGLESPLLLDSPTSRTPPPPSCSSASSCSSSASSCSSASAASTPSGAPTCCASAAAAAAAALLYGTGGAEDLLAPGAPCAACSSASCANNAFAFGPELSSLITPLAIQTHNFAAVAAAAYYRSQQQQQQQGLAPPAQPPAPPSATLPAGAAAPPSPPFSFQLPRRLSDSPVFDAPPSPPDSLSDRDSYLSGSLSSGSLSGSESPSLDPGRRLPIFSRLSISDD
# UniProt P17026: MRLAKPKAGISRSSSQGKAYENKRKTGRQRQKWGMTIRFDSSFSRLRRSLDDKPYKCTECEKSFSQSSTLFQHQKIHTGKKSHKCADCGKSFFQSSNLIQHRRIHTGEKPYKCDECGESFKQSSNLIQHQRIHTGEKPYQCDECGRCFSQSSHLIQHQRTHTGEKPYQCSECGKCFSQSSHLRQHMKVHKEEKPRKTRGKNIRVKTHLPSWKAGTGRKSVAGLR
# This is one part of the list.
# Tests used:
# Test in all cases: log2 fold change, soluble protein after heating vs DMSO (PISA); higher = thermal stabilisation; K562 cells, 10 uM, 30 min; active = over 0.2 and 3.5 SD of the protein, either way, in both replicates (recomputed)
# [1] = compound: Cc1cccc(CC(=O)N2CCc3c2ccc(-c2cn(C)c4ncnc(N)c24)c3F)n1
# Method in brief: (§1)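 Soluble protein was defined as the supernatant after 21,000xg for 90 min. It came from K562 cells at 2×10^6 cells/mL given 10 μM compound for 30 min, heated in aliquots for 3 min across 48°C-58°C, pooled, and extracted in PBS with 0.5% NP-40 at 4°C, and was quantified by TMTpro 16plex LC-MS/MS with equalised channel sums. Thermal stability against control samples, from duplicates, is reported as log2 fold change.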
# [2] = compound: Cc1nc(Nc2ncc(C(=O)Nc3c(C)cccc3Cl)s2)cc(N2CCN(CCO)CC2)n1 [dasatinib]
# Method in brief: as §1
# [3] = compound: Cn1cc(-c2ccc3c(c2)CCN3C(=O)Cc2cccc(C(F)(F)F)c2)c2c(N)ncnc21
# Method in brief: as §1
# [4] = compound: Cn1cc(-c2ccc3nnc(C(F)(F)c4ccc5ncccc5c4)n3n2)cn1
# Method in brief: as §1
# [5] = compound: Cc1cn(-c2cc(NC(=O)c3ccc(C)c(Nc4nccc(-c5cccnc5)n4)c3)cc(C(F)(F)F)c2)cn1 [nilotinib]
# Method in brief: as §1
# [6] = compound: Cc1nc(Nc2n[nH]c3c2CN(C(=O)N[C@H](CN(C)C)c2ccccc2)C3(C)C)c2sccc2n1
# Method in brief: as §1
# [7] = compound: Cc1ncc(-c2ccnc(Nc3ccc(S(C)(=O)=O)cc3)n2)n1C(C)C
# Method in brief: as §1
# [8] = compound: Cn1cncc1[C@@](N)(c1ccc(Cl)cc1)c1ccc2c(c1)c(-c1cccc(Cl)c1)cc(=O)n2C [tipifarnib]
# Method in brief: as §1
# [9] = compound: Cc1ccc(NC(=O)c2ccc(CN3CC[C@H](N(C)C)C3)c(C(F)(F)F)c2)cc1Nc1nccc(-c2cncnc2)n1 [bafetinib]
# Method in brief: as §1
# [10] = compound: FC(F)(F)c1ccc(/C=C/c2nc(COc3ccc(CCCCn4ccnn4)cc3)co2)cc1 [mubritinib]
# Method in brief: as §1
target,measurement,setting,value
XRCC1 (UniProt P18887),log2 fold change,[1],inactive: 0.019
same,log2 fold change,[2],inactive: 0
same,log2 fold change,[3],inactive: 0.123
same,log2 fold change,[4],inactive: 0.063
ZDHHC7 isoform 2 (UniProt Q9NXF8),log2 fold change,[1],inactive: -0.06
same,log2 fold change,[5],inactive: 0.104
same,log2 fold change,[6],inactive: 0.046
same,log2 fold change,[2],inactive: -0.063
same,log2 fold change,[7],inactive: 0.059
same,log2 fold change,[3],inactive: -0.088
same,log2 fold change,[4],inactive: 0.091
same,log2 fold change,[8],inactive: -0.047
ZBTB17 isoform 2 (UniProt Q13105),log2 fold change,[9],inactive: 0.07
same,log2 fold change,[10],inactive: -0.131
ZC3H7B (UniProt Q9UGR2),log2 fold change,[1],inactive: -0.252
same,log2 fold change,[2],inactive: 0.21
same,log2 fold change,[3],inactive: -0.523
same,log2 fold change,[4],inactive: -0.254
same,log2 fold change,[10],inactive: 0.044
ZDHHC9 (UniProt Q9Y397),log2 fold change,[1],inactive: 0.056
same,log2 fold change,[4],inactive: -0.08
ZFYVE21 isoform 2 (UniProt Q9BQ24),log2 fold change,[1],inactive: -0.022
same,log2 fold change,[2],inactive: -0.32
same,log2 fold change,[4],inactive: -0.195
ZBTB24 (UniProt O43167),log2 fold change,[1],inactive: -0.118
same,log2 fold change,[2],inactive: 0.063
same,log2 fold change,[3],inactive: -0.411
same,log2 fold change,[4],inactive: -0.441
same,log2 fold change,[8],inactive: 0.091
ZBTB33 (UniProt Q86T24),log2 fold change,[2],inactive: -0.024
ZG16B (UniProt Q96DA0),log2 fold change,[9],inactive: 0.859
same,log2 fold change,[8],inactive: -0.706
same,log2 fold change,[10],inactive: 0.231
ZDHHC16 (UniProt Q969W1),log2 fold change,[5],inactive: 0.047
same,log2 fold change,[6],inactive: 0.002
same,log2 fold change,[7],inactive: -0.042
XPC (UniProt Q01831),log2 fold change,[3],inactive: -0.024
same,log2 fold change,[4],inactive: 0.271
same,log2 fold change,[8],inactive: -0.268
XPA (UniProt P23025),log2 fold change,[1],inactive: 0.044
same,log2 fold change,[5],inactive: 0.085
same,log2 fold change,[6],inactive: -0.051
same,log2 fold change,[7],inactive: -0.088
same,log2 fold change,[4],inactive: 0.075
same,log2 fold change,[8],inactive: 0.036
YBEY (UniProt P58557),log2 fold change,[1],inactive: 0.276
same,log2 fold change,[4],inactive: 0.313
ZFHX4 isoform 5 (UniProt Q86UP3),log2 fold change,[5],inactive: 0.171
same,log2 fold change,[6],inactive: -0.028
same,log2 fold change,[7],inactive: -0.018
ZFYVE26 (UniProt Q68DK2),log2 fold change,[3],inactive: -0.045
ZFPM2 (UniProt Q8WW38),log2 fold change,[3],inactive: 0.01
same,log2 fold change,[10],inactive: -0.198
ZDHHC4 (UniProt Q9NPG8),log2 fold change,[9],inactive: 0.02
same,log2 fold change,[8],inactive: -0.026
same,log2 fold change,[10],inactive: -0.005
ZDHHC13 (UniProt Q8IUH4),log2 fold change,[3],inactive: -0.067
same,log2 fold change,[4],inactive: -0.021
ZDHHC6 (UniProt Q9H6R6),log2 fold change,[1],inactive: 0.097
same,log2 fold change,[8],inactive: 0.086
XYLT2 (UniProt Q9H1B5),log2 fold change,[3],inactive: 0.149
YIPF1 (UniProt Q9Y548),log2 fold change,[9],inactive: -0.122
same,log2 fold change,[5],inactive: 0
same,log2 fold change,[6],inactive: 0.121
same,log2 fold change,[7],inactive: -0.032
same,log2 fold change,[3],inactive: -0.129
same,log2 fold change,[8],inactive: -0.007
same,log2 fold change,[10],inactive: 0.036
ZMYM2 (UniProt Q9UBW7),log2 fold change,[9],inactive: -0.2
same,log2 fold change,[2],inactive: 0.083
same,log2 fold change,[8],inactive: -0.147
ZKSCAN8 (UniProt Q15776),log2 fold change,[1],inactive: 0.117
same,log2 fold change,[2],inactive: -0.196
same,log2 fold change,[4],inactive: -0.029
same,log2 fold change,[8],inactive: 0.181
ZMYND8 isoform 19 (UniProt Q9ULU4),log2 fold change,[9],inactive: 0.088
same,log2 fold change,[2],inactive: -0.003
same,log2 fold change,[3],inactive: -0.044
same,log2 fold change,[8],inactive: -0.063
ZKSCAN4 (UniProt Q969J2),log2 fold change,[3],inactive: -0.091
same,log2 fold change,[4],inactive: 0.067
ZDHHC12 isoform 3 (UniProt Q96GR4),log2 fold change,[2],inactive: 0.118
same,log2 fold change,[8],inactive: -0.05
ZNF131 (UniProt P52739),log2 fold change,[9],inactive: -0.112
same,log2 fold change,[4],inactive: 0.036
ZKSCAN3 (UniProt Q9BRR0),log2 fold change,[3],inactive: -0.15
YTHDC2 (UniProt Q9H6S0),log2 fold change,[1],inactive: -0.014
same,log2 fold change,[10],inactive: 0.004
ZFP36L2 (UniProt P47974),log2 fold change,[10],inactive: 0.099
ZCRB1 (UniProt Q8TBF4),log2 fold change,[1],inactive: 0.012
same,log2 fold change,[8],inactive: 0.015
ZNF22 (UniProt P17026),log2 fold change,[2],inactive: 0.019
same,log2 fold change,[3],inactive: -0.46
same,log2 fold change,[4],inactive: -0.211

# Reformatted as tab-separated lines: entries from further up.
target	measurement	setting	value
ZDHHC16 (UniProt Q969W1)	log2 fold change	[5]	inactive: 0.047
same	log2 fold change	[6]	inactive: 0.002
same	log2 fold change	[7]	inactive: -0.042
